Results on one compound are retold here after patent publication US5739334A (Istituto Ricerca Francesco Angelini S.p.A., priority 1992, dated 1998).

Assay [1] concerns serotonin 1.
Assay [2] has as its system sigma.
Assay [3] deals with alpha 2.

Read-outs that look alike come from different tables or passages of the source.

As to `O=c1n(CCCN2CCN(c3cccc(Cl)c3)CC2)nc2ccccn12` [trazodone], the “% inhibition, serotonin 1” value in assay [1] (C = 10^-5 M) is reported as 79.8%; in assay [1] (C = 10^-7 M), “less than 45.0%”. For the same compound, the “% inhibition, sigma” value is 81.7% in assay [2] (C = 10^-5 M) and “less than 45.0%” in assay [2] (C = 10^-7 M). For the same compound, the “% inhibition, alpha 2” value in assay [3] (C = 10^-5 M) is 75.1%; in assay [3] (C = 10^-7 M) it was “less than 45.0%”.
